Measurements as given in article PMC7437177.
Results are given in words; binding and its absence hold for the method and conditions named. Binding seen in cells or lysates may run through a third protein. Some results given as binding are weak or reduced against the parent protein; the word gives no strength. Where a sequence is shown, tags or fusion partners need not be part of it.

Legend:
Test in all cases: co-IP; nuclear lysates (NE-PER kit) of HEK293T cells co-transfected with FLAG-MATR3 and V5-HNRNPM, 24 h after transfection; FLAG antibody overnight at 4 °C, Protein G Dynabeads 4 h at 4 °C; blot for V5; in one panel treated with 1 mg/ml RNase A for 1 h at 4 °C
FLAG-MATR3 F115C (human) = molecular target: T1, FLAG-MATR3 F115C (human) (UniProt P43243)
T1 sequence: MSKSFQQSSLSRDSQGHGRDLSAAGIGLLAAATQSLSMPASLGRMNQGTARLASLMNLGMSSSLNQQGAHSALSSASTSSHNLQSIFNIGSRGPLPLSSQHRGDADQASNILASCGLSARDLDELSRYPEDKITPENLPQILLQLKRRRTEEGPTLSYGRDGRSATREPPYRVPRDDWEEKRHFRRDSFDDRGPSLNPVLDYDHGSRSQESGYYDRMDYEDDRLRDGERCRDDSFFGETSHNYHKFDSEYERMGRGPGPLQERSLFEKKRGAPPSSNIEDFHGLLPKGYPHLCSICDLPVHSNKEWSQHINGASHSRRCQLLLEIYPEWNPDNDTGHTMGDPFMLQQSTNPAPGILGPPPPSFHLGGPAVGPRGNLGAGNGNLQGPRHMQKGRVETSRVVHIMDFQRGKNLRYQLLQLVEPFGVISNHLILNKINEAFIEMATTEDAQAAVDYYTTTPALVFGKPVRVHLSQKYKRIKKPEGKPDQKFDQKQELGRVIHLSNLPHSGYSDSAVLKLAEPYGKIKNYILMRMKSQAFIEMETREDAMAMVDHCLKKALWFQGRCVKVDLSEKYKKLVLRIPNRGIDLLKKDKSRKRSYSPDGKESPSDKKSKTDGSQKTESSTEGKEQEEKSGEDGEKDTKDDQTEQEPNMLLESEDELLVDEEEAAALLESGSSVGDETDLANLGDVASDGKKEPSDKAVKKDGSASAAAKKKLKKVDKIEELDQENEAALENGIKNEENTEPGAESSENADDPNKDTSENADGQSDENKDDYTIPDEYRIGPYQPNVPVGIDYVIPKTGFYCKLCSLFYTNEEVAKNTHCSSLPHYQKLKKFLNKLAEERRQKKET

FLAG-MATR3 S85C (human) = molecular target: T2, FLAG-MATR3 S85C (human) (UniProt P43243)
T2 sequence: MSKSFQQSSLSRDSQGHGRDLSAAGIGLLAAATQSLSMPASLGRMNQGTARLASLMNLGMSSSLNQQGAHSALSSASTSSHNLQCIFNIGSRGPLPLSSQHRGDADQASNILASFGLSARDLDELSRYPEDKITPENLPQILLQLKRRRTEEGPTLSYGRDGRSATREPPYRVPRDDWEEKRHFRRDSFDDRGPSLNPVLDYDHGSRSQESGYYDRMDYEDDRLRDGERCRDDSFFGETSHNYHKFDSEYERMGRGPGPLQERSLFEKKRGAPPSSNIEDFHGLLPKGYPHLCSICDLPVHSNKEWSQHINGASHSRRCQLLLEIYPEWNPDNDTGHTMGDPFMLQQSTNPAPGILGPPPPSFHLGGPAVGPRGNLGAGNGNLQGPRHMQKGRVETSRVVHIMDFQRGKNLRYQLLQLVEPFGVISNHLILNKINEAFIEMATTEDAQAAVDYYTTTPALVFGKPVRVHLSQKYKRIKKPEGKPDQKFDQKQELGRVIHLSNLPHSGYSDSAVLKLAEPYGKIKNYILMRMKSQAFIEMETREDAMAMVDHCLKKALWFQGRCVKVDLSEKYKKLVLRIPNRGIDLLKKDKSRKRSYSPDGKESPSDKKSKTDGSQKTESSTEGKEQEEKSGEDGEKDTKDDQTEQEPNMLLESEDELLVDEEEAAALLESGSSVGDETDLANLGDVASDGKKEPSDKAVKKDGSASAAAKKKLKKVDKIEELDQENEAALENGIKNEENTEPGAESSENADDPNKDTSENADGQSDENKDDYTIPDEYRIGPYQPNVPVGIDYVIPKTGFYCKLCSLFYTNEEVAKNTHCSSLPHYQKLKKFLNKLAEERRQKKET

[1] = molecular target: T3, FLAG-MATR3 WT (Matrin-3, wild type) (human) (UniProt P43243)
T3 sequence: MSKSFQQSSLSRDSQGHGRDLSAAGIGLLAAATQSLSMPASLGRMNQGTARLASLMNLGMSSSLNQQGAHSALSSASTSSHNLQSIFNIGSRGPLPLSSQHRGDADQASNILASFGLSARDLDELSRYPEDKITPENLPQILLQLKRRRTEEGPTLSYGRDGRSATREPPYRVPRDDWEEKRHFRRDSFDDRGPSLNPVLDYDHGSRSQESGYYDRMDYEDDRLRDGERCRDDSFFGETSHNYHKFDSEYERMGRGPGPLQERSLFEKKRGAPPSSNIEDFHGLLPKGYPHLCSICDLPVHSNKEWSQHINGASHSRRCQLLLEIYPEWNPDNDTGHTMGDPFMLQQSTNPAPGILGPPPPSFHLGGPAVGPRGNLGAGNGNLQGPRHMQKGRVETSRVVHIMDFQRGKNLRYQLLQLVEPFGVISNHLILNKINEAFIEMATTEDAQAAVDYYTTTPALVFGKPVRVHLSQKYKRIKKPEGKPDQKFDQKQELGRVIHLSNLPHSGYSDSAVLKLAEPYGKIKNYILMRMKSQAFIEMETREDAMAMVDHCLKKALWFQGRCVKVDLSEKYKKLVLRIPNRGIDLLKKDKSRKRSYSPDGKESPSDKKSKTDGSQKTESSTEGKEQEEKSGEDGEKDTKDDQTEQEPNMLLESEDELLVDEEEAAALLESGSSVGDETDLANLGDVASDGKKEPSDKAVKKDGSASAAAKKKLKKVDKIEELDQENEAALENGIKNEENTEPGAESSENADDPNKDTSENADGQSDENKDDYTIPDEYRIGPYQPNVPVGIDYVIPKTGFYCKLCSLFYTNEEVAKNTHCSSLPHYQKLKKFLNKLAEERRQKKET

Measured: binding

B1: V5-hnRNPM (protein, UniProt P52272 1-730)
chain: MAAGVEAAAEVAATEIKMEEESGAPGVPSGNGAPGPKGEGERPAQNEKRKEKNIKRGGNRFEPYANPTKRYRAFITNIPFDVKWQSLKDLVKEKVGEVTYVELLMDAEGKSRGCAVVEFKMEESMKKAAEVLNKHSLSGRPLKVKEDPDGEHARRAMQKVMATTGGMGMGPGGPGMITIPPSILNNPNIPNEIIHALQAGRLGSTVFVANLDYKVGWKKLKEVFSMAGVVVRADILEDKDGKSRGIGTVTFEQSIEAVQAISMFNGQLLFDRPMHVKMDERALPKGDFFPPERPQQLPHGLGGIGMGLGPGGQPIDANHLNKGIGMGNIGPAGMGMEGIGFGINKMGGMEGPFGGGMENMGRFGSGMNMGRINEILSNALKRGEIIAKQGGGGGGGSVPGIERMGPGIDRLGGAGMERMGAGLGHGMDRVGSEIERMGLVMDRMGSVERMGSGIERMGPLGLDHMASSIERMGQTMERIGSGVERMGAGMGFGLERMAAPIDRVGQTIERMGSGVERMGPAIERMGLSMERMVPAGMGAGLERMGPVMDRMATGLERMGANNLERMGLERMGANSLERMGLERMGANSLERMGPAMGPALGAGIERMGLAMGGGGGASFDRAIEMERGNFGGSFAGSFGGAGGHAPGVARKACQIFVRNLPFDFTWKMLKDKFNECGHVLYADIKMENGKSKGCGVVKFESPEVAERACRMMNGMKLSGREIDVRIDRNA
binds: all assays above
